Results as given in US20090282496A1, “Androgen Receptor Related Methods for Treating Bladder Cancer” (University of Rochester Medical Center, priority 2008, published 2009).
Some entries share one result that the patent states for a list of compounds.

Tested on: AR-negative bladder cancer cell lines (5637)
Assay: Cell proliferation assay (MTT), AR-negative bladder cancer cell lines
Assay type: cell-based, human
Conditions: all other AR-negative bladder cancer cell lines; DHT and HF treatment

SMILES: CC(C)(O)C(=O)Nc1ccc([N+](=O)[O-])c(C(F)(F)F)c1 [HF, hydroxyflutamide]
- changes in cell growth: < 10%
